PubChem BioAssay AID504791, Drosophila RNAi Screening Center | 2011
In all, the deposit lists about 23,000 reagents; below is a random part of those with a known target gene and a result. Of all reagents, 199 (0.86%) got an active call. 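Plate-scaled ratios behind the calls are not deposited; printed light signals are raw; many rows marked increased or decreased are still called inactive.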 Reagents against one gene are numbered here. Names joined by + are all predicted targets of the reagent. No sequences are given here.

Purpose: 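Genes of the fly required for silencing by miRNA, siRNA or endo-siRNA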 (primary screen)
System: Drosophila S2-derived reporter cells
Reagents: long dsRNA against Drosophila genes, about 150-250 ng dsRNA per well (siRNA assay); about 80-120 ng (miRNA assay)
Duration: about 5 days (siRNA assay); about 4 days (miRNA assay)
Challenge: copper sulfate induction of reporters: 25 µM (siRNA assay); 200 mM stated (miRNA assay), 1-2 days before reading
Measured: 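Per-well ratio of Renilla over firefly light, expressed relative to that plate's average ratio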
Direction: siRNA reporter hit score: higher = 3 marks a strong hit with raised ratio; -3 a strong hit with lowered ratio
Active means: 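First-pass picks had plate-scaled ratios over 1.5 for the siRNA assay, over 1.6 for the miRNA assay, or under 0.6; two distinct dsRNAs had to score alike on retest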

target gene	reagent	siRNA reporter hit score	stable siRNA reporter change	miRNA reporter change	stable assay Renilla, run 1 (luminescence)	stable assay firefly, run 1 (luminescence)	Call
Coq3	1				7334	5.58e5	inactive
CG33255 (retired record) + hpRNA:CR32205	1				6388	5.04e5	inactive
CG33255 (retired record) + hpRNA:CR32205	2				5971	4.65e5	inactive
CG8405	1				9315	4.38e5	inactive
CG8405	2				6322	3.47e5	inactive
Dyro	1				5088	2.12e5	inactive
Spn77Ba	1				8434	3.89e5	inactive
Pop2	1				7083	4.33e5	inactive
GstE12	1				7819	4.19e5	inactive
Drl-2	1				5670	3.85e5	inactive
Drl-2	2				6472	5.50e5	inactive
Drl-2	3			reporter ratio lowered past the hit cutoff	5528	4.15e5	inactive
CG33337	1				5586	3.67e5	inactive
CG5355	1				9556	9.61e5	inactive
Samuel	1				6867	2.68e5	inactive
Samuel	2				6754	2.87e5	inactive
Samuel	3				6158	3.81e5	inactive
Samuel	4				8615	3.88e5	inactive
Samuel	5				4220	3.05e5	inactive
CG8785	1				8729	6.29e5	inactive
Muc68D	1				8663	4.14e5	inactive
CG32425	1				6003	2.22e5	inactive
CG32425	2				8555	3.07e5	inactive
Polr3E	1				6907	3.65e5	inactive
CG33233	1				6811	3.55e5	inactive
SmE	1		reporter ratio raised past the hit cutoff		11323	3.72e5	active
CG4781	1				6732	4.42e5	inactive
CG30485	1				6808	4.30e5	inactive
Cda9	1				6683	3.46e5	inactive
EndoU	1				9186	5.26e5	inactive
Pkn + Tsen15	1				5199	5.51e5	inactive
CG5781	1				8131	4.67e5	inactive
CG11367	1				4183	4.34e5	inactive
CG42369	1				8002	5.57e5	inactive
CG14221	1				5111	3.18e5	inactive
Cks30A	1				5911	5.85e5	inactive
CG34370	1				6826	5.09e5	inactive
CG34370	2				7115	3.94e5	inactive
CG34370	3				7166	4.42e5	inactive
CG34370	4				7960	3.92e5	inactive
CG10232	1				7270	3.60e5	inactive
CG31089	1				6398	3.25e5	inactive
gammaSnap2	1				6466	4.16e5	inactive
JhI-26	1				8185	3.60e5	inactive
CG10919	1				6359	3.74e5	inactive
Nf-YC	1		reporter ratio raised past the hit cutoff		3967	1.34e5	inactive
Nf-YC	2				3107	2.91e5	inactive
LKRSDH	1				14908	8.99e5	inactive
Cap-G	1				7175	4.99e5	inactive
Cap-G	2				6262	4.04e5	inactive
Cap-G	3				10094	3.69e5	inactive
MED20	1	-3			7179	3.50e5	inactive
Gmppb	1				7268	4.40e5	inactive
Slmap	1				4688	2.82e5	inactive
spt4	1				7742	5.12e5	inactive
Met	1				5346	4.13e5	inactive
CG5282	1				7754	2.97e5	inactive
didum	1				7398	4.01e5	inactive
CG13786	1				6666	3.91e5	inactive
CG14777	1				5530	4.18e5	inactive
Nop17l	1				8038	4.11e5	inactive
CG8517	1				7131	4.08e5	inactive
Reph	1				2.65e5	1.04e5	inactive
Reph	2				9757	6.60e5	inactive
mAcon1	1				8086	4.97e5	inactive
BomS1	1				5219	5.40e5	inactive
CG6550	1				12694	6.66e5	inactive
tank	1				8687	5.15e5	inactive
Aps	1				4740	2.64e5	inactive
CG4880	1				7910	4.33e5	inactive
kay	1				6304	4.14e5	inactive
kay	2				5063	2.19e5	inactive
kay	3		reporter ratio raised past the hit cutoff		9019	3.14e5	active
Hsp60B	1				19555	1.38e5	inactive
CG9536	1				34222	7.40e5	inactive
Tig	1				8862	5.51e5	inactive
CG31636	1				7007	3.79e5	inactive
rdgA	1				6847	3.09e5	inactive
rdgA	2				5287	3.95e5	inactive
rdgA	3				8263	4.32e5	inactive
PlexB	1				6671	3.78e5	inactive
CG14568	1				5779	3.59e5	inactive
Mur89F	1				6984	3.38e5	inactive

Entries listed above with an active call:
target gene	reagent	siRNA reporter hit score	stable siRNA reporter change	miRNA reporter change	stable assay Renilla, run 1 (luminescence)	stable assay firefly, run 1 (luminescence)	Call
SmE	1		reporter ratio raised past the hit cutoff		11323	3.72e5	active
kay	3		reporter ratio raised past the hit cutoff		9019	3.14e5	active
